Some results were stated once for a whole list of compounds, not compound by compound. At least one compound was matched to its structure with a doubt left.
Columns and labels:
Format in all cases: in vivo
[1] = tested on: brown planthopper (Nilaparvata lugens); experiment: Test Example 6: irrigation at plant foot of rice seedling against brown planthopper, 200 ppm; conditions: 5 mL irrigation at plant foot of rice seedling, larvae released after 7 days, counted after additional 6 days
[2] = tested on: brown planthopper (Nilaparvata lugens); experiment: Test Example 5: foliar spray on rice seedling against brown planthopper, 200 ppm; conditions: 10 mL sprayed on rice seedling, 3rd to 4th instar larvae, after 6 days at 25° C.
[3] = tested on: cotton aphid (Aphis gossypii); experiment: Test Example 2: foliar spray on cucumber seedling against cotton aphid, 200 ppm; conditions: 20 mL sprayed on cucumber seedling with cotton aphid (all stages), 6 days after spraying
[4] = tested on: cotton aphid (Aphis gossypii); experiment: Test Example 1: foliar spray on cucumber seedling against cotton aphid, 500 ppm; conditions: 20 mL sprayed on cucumber seedling with cotton aphid (all stages), 6 days after spraying
[5] = tested on: cotton aphid (Aphis gossypii); experiment: Test Example 3: irrigation at plant foot of cucumber seedling against cotton aphid, 200 ppm; conditions: 5 mL irrigation at plant foot of cucumber seedling, aphids released after 7 days, counted after additional 6 days
[6] = tested on: brown planthopper (Nilaparvata lugens); experiment: Test Example 4: foliar spray on rice seedling against brown planthopper, 500 ppm; conditions: 10 mL sprayed on rice seedling, 3rd to 4th instar larvae, after 6 days at 25° C.

SMILES	Controlling value [1] [%]	Controlling value [2] [%]	Controlling value [3] [%]	Controlling value [4] [%]	Controlling value [5] [%]	Controlling value [6] [%]
CCS(=O)(=O)c1cccnc1-c1cc(=O)n(CCCC(F)(F)F)cn1 [compound 11]	≥ 90	≥ 90	≥ 90			
CCS(=O)(=O)c1cc(C(F)(F)F)ccc1-c1cc(=O)n(CC(F)(F)C(F)(F)F)cn1 [compound 2]	≥ 90		≥ 90	≥ 90		
CCS(=O)(=O)c1cccnc1-c1ncn(CC(F)(F)C(F)C(F)(F)F)c(=O)c1Cl (stereo not shown) [compound 57]			≥ 90			
CCS(=O)(=O)c1cccnc1-c1cc(=O)n(CCC(F)(F)C(F)(F)F)cn1 [compound 31]	≥ 90	≥ 90	≥ 90		≥ 90	
CCS(=O)(=O)c1cc(C(F)(F)F)cnc1-c1cc(=O)n(CC(F)(F)C(F)(F)C(F)(F)C(F)F)cn1 [compound 42]			≥ 90			
CCS(=O)(=O)c1ccc(-n2cccn2)nc1-c1cc(=O)n(CC(F)(F)C(F)C(F)(F)F)cn1 (stereo not shown) [compound 46]			≥ 90			
CCS(=O)(=O)c1cccnc1-c1cc(=O)n(CC(F)(F)C(F)C(F)(F)F)c(C)n1 (stereo not shown) [compound 54]			≥ 90			
CCS(=O)(=O)c1cccnc1-c1cc(=O)n(CCC(F)(F)C(F)(F)C(F)(F)F)cn1 [compound 32]	≥ 90	≥ 90	≥ 90		≥ 90	
CCS(=O)(=O)c1ccc(S(=O)(=O)CC)c(-c2cc(=O)n(CC(F)(F)C(F)C(F)(F)F)cn2)n1 (stereo not shown) [compound 14]			≥ 90			
CCS(=O)(=O)c1cccnc1-c1cc(=O)n(CC(F)(F)C(F)C(F)(F)F)cn1 (stereo not shown) [compound 9]	≥ 90	≥ 90	≥ 90	≥ 90	≥ 90	≥ 90
CCS(=O)(=O)c1cccnc1-c1cc(=S)n(CC(F)(F)C(F)C(F)(F)F)cn1 (stereo not shown) [compound 33]		≥ 90	≥ 90	≥ 90	≥ 90	
CCS(=O)(=O)c1cccnc1-c1cc(=O)n(CC(F)(F)C(F)F)cn1 [compound 8]	≥ 90	≥ 90	≥ 90		≥ 90	
CCS(=O)(=O)c1ccc(-n2ccnc2)nc1-c1cc(=O)n(CC(F)(F)C(F)C(F)(F)F)cn1 (stereo not shown) [compound 47]		≥ 90	≥ 90			
CCS(=O)(=O)c1cccnc1-c1cc(=O)n(CC(F)F)cn1 [compound 37]		≥ 90	≥ 90		≥ 90	
CCS(=O)(=O)c1cc(C(F)(F)F)ccc1-c1cc(=O)n(CC(F)(F)C(F)C(F)(F)F)cn1 (stereo not shown) [compound 3]			≥ 90	≥ 90	≥ 90	
CCS(=O)(=O)c1cccnc1-c1cc(=O)n(CCCF)cn1 [compound 40]		≥ 90	≥ 90		≥ 90	
CCS(=O)(=O)c1cc(C(F)(F)F)cnc1-c1cc(=O)n(CC(F)(F)C(F)C(F)(F)F)cn1 (stereo not shown) [compound 36]	≥ 90		≥ 90		≥ 90	
CCS(=O)(=O)c1cc(C(F)(F)F)ccc1-c1ncn(CC(F)(F)C(F)(F)F)c(=O)c1C [compound 4]	≥ 90				≥ 90	
CCS(=O)(=O)c1cccnc1-c1cc(=O)n(CCC(F)(Cl)C(F)(F)Br)cn1 (stereo not shown) [compound 38]	≥ 90	≥ 90	≥ 90		≥ 90	
CCS(=O)(=O)c1ccc(N)nc1-c1cc(=O)n(CC(F)(F)C(F)C(F)(F)F)cn1 (stereo not shown) [compound 34]	≥ 90	≥ 90	≥ 90		≥ 90	
CCOc1ccc(S(=O)(=O)CC)c(-c2cc(=O)n(CC(F)(F)C(F)C(F)(F)F)cn2)n1 (stereo not shown) [compound 53]			≥ 90			
